Values of other authors, collected in patent US20240274252A1, “Dosage Calculator” (Closed Loop Medicine Ltd., priority 2023, published 2024).
At least one compound was matched to its structure with a doubt left.

Settings: several studies

## [H]/N=C(/N)c1ccc(NCc2nc3cc(C(=O)N(CCC(=O)O)c4ccccn4)ccc3n2C)cc1 [dabigatran]
  trough levels giving the best balance between reduction in stroke and minimization of bleeding: 75 to 150 ng/mL
